# From the supplement of paper PMC8256030
# Several values for one entry are separate records, joined by “and”; a condition that tells them apart may be missing. Equal entries are not always repeated. This is one part of the list. This data set is noisy: repeats of one test often differ as much as different tests do.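 HEK293T cells were given each compound shortly before transfection with a reporter in which red mCherry is followed by the SARS-CoV-2 frameshift element and then GFP in the −1 frame, so GFP appears only after frameshifting.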
# Legend:
# [1] = system: SARS-CoV-2 -1 PRF reporter mCherry-FSE-GFP(-1); assay: mCherry (red) intensity as percent of control; higher = higher upstream reporter expression; details: 10 µM; 24 h; HEK293T
# [2] = system: SARS-CoV-2 -1 PRF reporter mCherry-FSE-GFP(-1); assay: percent effect, decrease of GFP/mCherry ratio (-1 PRF reporter) relative to controls; higher = stronger frameshift inhibition; details: 10 µM; 24 h; HEK293T
SMILES,mCherry [1],percent effect [2]
NS(=O)(=O)c1ccc(N2CCCCS2(=O)=O)cc1 [sultiame],107%,-10.3%
CCOC(=O)NNc1ccc(N(CC)CC(C)O)nn1 (configuration not stated) [cadralazine],64.7%,3.52%
OC(CCN1CCCCC1)(c1ccccc1)C1CCCCC1 (configuration not stated) [trihexyphenidyl],112%,-7.19%
O=C(O[C@H]1CN2CCC1CC2)N1CCc2ccccc2[C@@H]1c1ccccc1 [Vesicare],117%,-1.33%
Cc1cc(C(=O)NNCc2ccccc2)no1 [isocarboxazid],102%,-3.17%
O=C1CN2Cc3c(ccc(Cl)c3Cl)N=C2N1 [anagrelide],91.3%,-4.02%
CCOC(=O)c1ccc(OCCC2CCN(c3ccc(C)nn3)CC2)cc1 [pirodavir],71.4%,-4.93%
CC(C)(C)NC[C@H](O)COc1nsnc1N1CCOCC1,100%,-3.84%
COc1cc2nc(N3CCN(C(=O)C4CCCO4)CC3)nc(N)c2cc1OC (configuration not stated) [Terazosin],83.2%,-1.47%
CO[C@H]1C[C@@H]2CC[C@@H](C)[C@@](O)(O2)C(=O)C(=O)N2CCCC[C@H]2C(=O)O[C@H]([C@H](C)C[C@@H]2CC[C@@H](O)[C@H](OC)C2)CC(=O)[C@H](C)/C=C(\C)[C@@H](O)[C@@H](OC)C(=O)[C@H](C)C[C@H](C)/C=C/C=C/C=C/1C [Rapamune],103%,-4.36%
CCOC(=O)O[C@]1(C(=O)COC(=O)CC)CC[C@H]2[C@@H]3CCC4=CC(=O)C=C[C@]4(C)[C@H]3[C@@H](O)C[C@@]21C [Prednicarbate],75.6%,-5.35%
CCOC(=O)c1ccc(C#Cc2ccc3c(c2)C(C)(C)CCS3)nc1 [tazarotene],98.6%,-0.821%
C=C[C@H]1CN2CC[C@H]1C[C@H]2[C@H](O)c1ccnc2ccc(OC)cc12,112% and 106%,2.51% and -10.9%
CN1[C@@H]2CC[C@H]1C[C@@H](OC(c1ccccc1)c1ccccc1)C2 [benzatropine],103%,-0.0498%
CC(=O)CC(c1ccc([N+](=O)[O-])cc1)c1c(O)c2ccccc2oc1=O (configuration not stated),99.9%,-16.7%
CN1C(=O)CC(C)(c2ccccc2)C1=O (configuration not stated) [mesuximide],78.3%,-4.69%

SMILES,mCherry [1],percent effect [2]
NS(=O)(=O)c1cc2c(cc1Cl)N=CNS2(=O)=O [chlorothiazide],96%,-2.98%
COc1cccc(CCc2ccccc2OCC(CN(C)C)OC(=O)CCC(=O)O)c1 (configuration not stated) [sarpogrelate],108%,-3.25%
CCC(=O)O[C@@H]1CC(=O)O[C@H](C)C/C=C/C=C/[C@H](O)[C@H](C)C[C@H](CC=O)[C@H](O[C@@H]2O[C@H](C)[C@@H](O[C@H]3C[C@@](C)(O)[C@@H](OC(=O)CC)[C@H](C)O3)[C@H](N(C)C)[C@H]2O)[C@H]1OC [midecamycin],106%,-1.54%
COc1ccc2cccc(CCNC(C)=O)c2c1 [agomelatine],91.2%,-1.29%
O=c1[nH]sc2cc(Cl)ccc12 [ticlatone],68.8%,-0.613%
CN(C/C=C/c1ccccc1)Cc1cccc2ccccc12 [naftifine],111%,-2.62%
COC(=O)c1ccc(=O)c2nc3c(=CO)c(O)cc(=O)c3[nH]c12 [Lomofungin],87%,2.28%
Cc1ccc(C(C)C)c(O)c1 [Thymol],80.6%,-2.02%
CCN(CC)CCOC(=O)C(c1ccccc1)C1CCCCC1 (configuration not stated) [drofenine],110%,-3.16%
CCC(=O)OCC(=O)[C@@]1(OC(=O)CC)[C@@H](C)C[C@H]2[C@@H]3CCC4=CC(=O)C=C[C@]4(C)[C@@]3(Cl)[C@@H](O)C[C@@]21C,86.1%,-1.68%
N=C(NCCCCCCNC(=N)NC(=N)Nc1ccc(Cl)cc1)NC(=N)Nc1ccc(Cl)cc1 [Chlorhexidine],99.5%,-13.3%
Cc1cc2c(OCC(CNC(C)(C)C)OC(=O)c3ccccc3)cccc2[nH]1 (configuration not stated) [bopindolol],111%,-2.18%
CO/N=C(\C(=O)N[C@@H]1C(=O)N2C(C(=O)O)=C(COC(N)=O)CS[C@H]12)c1ccco1 [Zinacef],99%,-2.28%
CC(C)(C)NC(=O)N[C@H](C(=O)N1C[C@H]2[C@@H]([C@H]1C(=O)NC(CC1CCC1)C(=O)C(N)=O)C2(C)C)C(C)(C)C (some centres not stated) [Boceprevir],49%,-7.91%
CN(Cc1ccc(C(C)(C)C)cc1)Cc1cccc2ccccc12 [butenafine],108%,2.88%

# Looked up one by one from above (2):
SMILES,mCherry [1],percent effect [2]
COC(=O)c1ccc(=O)c2nc3c(=CO)c(O)cc(=O)c3[nH]c12 [Lomofungin],87%,2.28%
COc1cccc(CCc2ccccc2OCC(CN(C)C)OC(=O)CCC(=O)O)c1 (configuration not stated) [sarpogrelate],108%,-3.25%
